Experimental findings from the supplement of paper PMC4604168 (melanoma cell lines) are described below.

The list shows a part of the results. Many values rest on one well or one pass, so single values are uncertain.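 Imaging used 1,536-well plates; nuclei positive for cleaved PARP by antibody were divided by total DNA-stained nuclei to yield the apoptosis fraction. Doses for screening kept most cells viable, and cell lines differ markedly in resting and induced cleaved-PARP levels.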

The test system of the test is COLO792. The experiment in a line: cleaved PARP positive nuclei fraction relative to DMSO control; melanoma cells; higher = more apoptosis. The following applies: library dose: low library concentration; 72 h.
With `C[C@]1(O)C[C@@H](c2nc(-c3ccc4ccc(-c5ccccc5)nc4c3)c3c(N)nccn32)C1` + C[C@@H]1CCN(C(=O)CC#N)C[C@@H]1N(C)c1ncnc2[nH]ccc12 [CP690550] (first compound 0.4 µM, partner dose 1 µM), the “cleaved PARP positive nuclei fraction” value is 132%.

As to `Cn1sc(=O)n(Cc2ccccc2)c1=O` + NCC(=O)Nc1ccc(-n2nc(C(F)(F)F)cc2-c2ccc3c(ccc4ccccc43)c2)cc1 [OSU03012] (first compound 0.4 µM, partner dose 1 µM), the “cleaved PARP positive nuclei fraction” value amounted to 93.9%.

`Cn1sc(=O)n(Cc2ccccc2)c1=O` + COc1cc2ncnc(Nc3ccc(Oc4ccccc4)cc3)c2cc1OC [SrcI1] (first compound 0.4 µM, partner dose 2 µM): the “cleaved PARP positive nuclei fraction” value turned out to be 75.6%.

As to `Cn1cnc2c(F)c(Nc3ccc(Br)cc3Cl)c(C(=O)NOCCO)cc21` [selumetinib] + Oc1nc(-c2ccc(C(F)(F)F)cc2)nc2c1CSCC2 [XAV939] (first compound 0.015 µM, partner dose 2 µM), the “cleaved PARP positive nuclei fraction” value is 59.9%.

Turning to `CCCCCCCCc1ccc(CCC(N)(CO)CO)cc1` [fingolimod] + O=C(CCCCCCC(=O)Nc1ccccc1)NO [vorinostat] (first compound 2 µM, partner dose 0.08 µM), the “cleaved PARP positive nuclei fraction” value is 64.1%.

Consider `NC1(c2ccc(-c3nc4ccn5c(=O)[nH]nc5c4cc3-c3ccccc3)cc2)CCC1` + COc1cc2ncnc(Nc3ccc(Oc4ccccc4)cc3)c2cc1OC [SrcI1] (first compound 0.4 µM, partner dose 2 µM), for which the “cleaved PARP positive nuclei fraction” value is 84.6%.

Take `CCCCCCCCc1ccc(CCC(N)(CO)CO)cc1` [fingolimod] + Cc1ccc(NC(=O)c2cccc(N(C)C)c2)cc1NC(=O)c1ccc(O)cc1 [ZM336372] (first compound 2 µM, partner dose 2 µM): the “cleaved PARP positive nuclei fraction” value was determined as 182%.

As for `Cn1sc(=O)n(Cc2ccccc2)c1=O` + Cn1cc(/C=C2\C(=O)Nc3cccnc32)c2ccccc21 [GW441756] (first compound 0.4 µM, partner dose 0.4 µM), the “cleaved PARP positive nuclei fraction” value worked out at 70%.

`CCN(CC)CCNC(=O)c1c(C)[nH]c(/C=C2\C(=O)Nc3ccc(F)cc32)c1C` [sunitinib] + CC1(C)NC(=O)N(c2ccc([N+](=O)[O-])c(C(F)(F)F)c2)C1=O [nilutamide] (first compound 0.4 µM, partner dose 1 µM): the “cleaved PARP positive nuclei fraction” value was 105%.

With `CN(c1ncccc1CNc1nc(Nc2ccc3c(c2)CC(=O)N3)ncc1C(F)(F)F)S(C)(=O)=O` + COc1cc2c(Oc3ccc4[nH]c(C)cc4c3F)ncnc2cc1OCCCN1CCCC1 [cediranib] (first compound 0.08 µM, partner dose 0.4 µM), the “cleaved PARP positive nuclei fraction” value was found to be 173%.

As to `C[C@@H](N)c1ccc(C(=O)Nc2ccnc3[nH]ccc23)cc1` + COc1cc2ncnc(Nc3ccc(Oc4ccccc4)cc3)c2cc1OC [SrcI1] (first compound 0.4 µM, partner dose 2 µM), the “cleaved PARP positive nuclei fraction” value was found to be 111%.

For the compound `CCCCCCCCc1ccc(CCC(N)(CO)CO)cc1` [fingolimod] + Oc1cc(-c2nc(-c3ccccc3)[nH]c2-c2ccncc2)ccc1Cl [L779450] (first compound 2 µM, partner dose 0.2 µM), the “cleaved PARP positive nuclei fraction” value came to 117%.

As to `C[C@@H](N)c1ccc(C(=O)Nc2ccnc3[nH]ccc23)cc1` + O=S(=O)(c1ccccc1)N(CC(F)(F)F)c1ccc(C(O)(C(F)(F)F)C(F)(F)F)cc1 [T0901317] (first compound 0.4 µM, partner dose 1.4 µM), the “cleaved PARP positive nuclei fraction” value was found to be 79.9%.

`CN(c1ncccc1CNc1nc(Nc2ccc3c(c2)CC(=O)N3)ncc1C(F)(F)F)S(C)(=O)=O` + O=c1cc(-c2cccc3c2Sc2ccccc2S3)oc(N2CCOCC2)c1 [KU55933] (first compound 0.08 µM, partner dose 1 µM): the “cleaved PARP positive nuclei fraction” value came out at 117%.

In the case of `C[C@]1(O)C[C@@H](c2nc(-c3ccc4ccc(-c5ccccc5)nc4c3)c3c(N)nccn32)C1` + CCc1ccc(CCOc2ccc(CC3SC(=O)NC3=O)cc2)nc1 [pioglitazone] (first compound 0.4 µM, partner dose 2 µM), the “cleaved PARP positive nuclei fraction” value was 165%.

Consider `C[C@]1(O)C[C@@H](c2nc(-c3ccc4ccc(-c5ccccc5)nc4c3)c3c(N)nccn32)C1` + COc1ccc2c(c1)CCC1C2CCC2(C)C(NCCCCCCN3C(=O)C=CC3=O)CCC12 [U73122] (first compound 0.4 µM, partner dose 0.4 µM), for which the “cleaved PARP positive nuclei fraction” value worked out at 122%.

For the compound `C[C@]1(O)C[C@@H](c2nc(-c3ccc4ccc(-c5ccccc5)nc4c3)c3c(N)nccn32)C1` + O=C1NC(=O)/C(=C/c2ccc(-c3ccc(F)cc3O)o2)S1 [AS252424] (first compound 0.4 µM, partner dose 1 µM), the “cleaved PARP positive nuclei fraction” value was 39.1%.

Regarding `CC1(C)CCC(c2ccc(Cl)cc2)=C(CN2CCN(c3ccc(C(=O)NS(=O)(=O)c4ccc(N[C@H](CCN5CCOCC5)CSc5ccccc5)c(S(=O)(=O)C(F)(F)F)c4)cc3)CC2)C1` + O=C(Nc1cccc(Cl)c1)Nc1ncc(CCNc2ncnc3ccsc23)s1 [SNS314] (first compound 0.4 µM, partner dose 0.0008 µM), the “cleaved PARP positive nuclei fraction” value came to 269%.

As for `C[C@]1(O)C[C@@H](c2nc(-c3ccc4ccc(-c5ccccc5)nc4c3)c3c(N)nccn32)C1` + O=C(Nc1ccccc1)c1cc([N+](=O)[O-])ccc1Cl [GW9662] (first compound 0.4 µM, partner dose 2 µM), the “cleaved PARP positive nuclei fraction” value turned out to be 49.7%.

As for `NC1(c2ccc(-c3nc4ccn5c(=O)[nH]nc5c4cc3-c3ccccc3)cc2)CCC1` + Cc1cc(N2CCOCC2)cc2[nH]c(-c3c(NC[C@@H](O)c4cccc(Cl)c4)cc[nH]c3=O)nc12 [BMS536924] (first compound 0.4 µM, partner dose 0.2 µM), the “cleaved PARP positive nuclei fraction” value is 458%.

Regarding `CCN(CC)CCNC(=O)c1c(C)[nH]c(/C=C2\C(=O)Nc3ccc(F)cc32)c1C` [sunitinib] + O=c1cc(-c2cccc3c2Sc2ccccc2S3)oc(N2CCOCC2)c1 [KU55933] (first compound 0.4 µM, partner dose 1 µM), the “cleaved PARP positive nuclei fraction” value came out at 160%.

With `CS(=O)(=O)c1ccc(C(=O)Nc2ccc(Cl)c(-c3ccccn3)c2)c(Cl)c1` [vismodegib] + CN(NC(=O)CC(=O)NN(C)C(=S)c1ccccc1)C(=S)c1ccccc1 [STA4783] (first compound 1 µM, partner dose 0.006 µM), the “cleaved PARP positive nuclei fraction” value was 212%.

Take `Cn1cnc2c(F)c(Nc3ccc(Br)cc3Cl)c(C(=O)NOCCO)cc21` [selumetinib] + C=CCNC1=C2C[C@@H](C)C[C@H](OC)[C@H](O)[C@@H](C)/C=C(\C)[C@H](OC(N)=O)[C@@H](OC)/C=C\C=C(/C)C(=O)NC(=CC1=O)C2=O [Tanespimycin] (first compound 0.015 µM, partner dose 0.002 µM): the “cleaved PARP positive nuclei fraction” value is 60.4%.

Take `Cn1cnc2c(F)c(Nc3ccc(Br)cc3Cl)c(C(=O)NOCCO)cc21` [selumetinib] + O=S(=O)(c1ccccc1)N(CC(F)(F)F)c1ccc(C(O)(C(F)(F)F)C(F)(F)F)cc1 [T0901317] (first compound 0.015 µM, partner dose 1.4 µM): the “cleaved PARP positive nuclei fraction” value was determined as 57.3%.

On to `NC1(c2ccc(-c3nc4ccn5c(=O)[nH]nc5c4cc3-c3ccccc3)cc2)CCC1` + O=C(O)C(=O)Nc1sc2c(c1C(=O)O)CCNC2 [TCS401] (first compound 0.4 µM, partner dose 1.66667 µM), for which the “cleaved PARP positive nuclei fraction” value stood at 133%.

As for `CC1(C)CCC(c2ccc(Cl)cc2)=C(CN2CCN(c3ccc(C(=O)NS(=O)(=O)c4ccc(N[C@H](CCN5CCOCC5)CSc5ccccc5)c(S(=O)(=O)C(F)(F)F)c4)cc3)CC2)C1` + Nc1nc(F)nc2c1ncn2[C@@H]1O[C@H](CO)[C@@H](O)[C@@H]1O [fludarabine] (first compound 0.4 µM, partner dose 0.2 µM), the “cleaved PARP positive nuclei fraction” value is 449%.

With `Cn1sc(=O)n(Cc2ccccc2)c1=O` + C=CCNC1=C2C[C@@H](C)C[C@H](OC)[C@H](O)[C@@H](C)/C=C(\C)[C@H](OC(N)=O)[C@@H](OC)/C=C\C=C(/C)C(=O)NC(=CC1=O)C2=O [Tanespimycin] (first compound 0.4 µM, partner dose 0.002 µM), the “cleaved PARP positive nuclei fraction” value came to 97.9%.

Regarding `Cn1cnc2c(F)c(Nc3ccc(Br)cc3Cl)c(C(=O)NOCCO)cc21` [selumetinib] + COc1ccc2c(c1)CCC1C2CCC2(C)C(NCCCCCCN3C(=O)C=CC3=O)CCC12 [U73122] (first compound 0.015 µM, partner dose 0.4 µM), the “cleaved PARP positive nuclei fraction” value was 143%.

With `CCCCCCCCc1ccc(CCC(N)(CO)CO)cc1` [fingolimod] + CC(C)(C)c1cnc(CSc2cnc(NC(=O)C3CCNCC3)s2)o1 [SNS-032] (first compound 2 µM, partner dose 0.01 µM), the “cleaved PARP positive nuclei fraction” value stood at 67.6%.

Consider `NC(=O)c1ccc(N(C(N)=O)c2c(F)cccc2F)nc1-c1ccc(F)cc1F` + COCC[n+]1c2c(n(Cc3cnccn3)c1C)C(=O)c1ccccc1C2=O [YM155] (first compound 0.4 µM, partner dose 0.0004 µM), for which the “cleaved PARP positive nuclei fraction” value came out at 82.5%.

For `NC1(c2ccc(-c3nc4ccn5c(=O)[nH]nc5c4cc3-c3ccccc3)cc2)CCC1` + CO[C@@H]1[C@H](N(C)C(=O)c2ccccc2)C[C@H]2O[C@]1(C)n1c3ccccc3c3c4c(c5c6ccccc6n2c5c31)C(=O)NC4 [Midostaurin] (first compound 0.4 µM, partner dose 0.08 µM), the “cleaved PARP positive nuclei fraction” value worked out at 202%.

Take `CC1(C)CCC(c2ccc(Cl)cc2)=C(CN2CCN(c3ccc(C(=O)NS(=O)(=O)c4ccc(N[C@H](CCN5CCOCC5)CSc5ccccc5)c(S(=O)(=O)C(F)(F)F)c4)cc3)CC2)C1` + Cn1nnc2c(C(N)=O)ncn2c1=O [temozolomide] (first compound 0.4 µM, partner dose 2 µM): the “cleaved PARP positive nuclei fraction” value came to 459%.
